Data taken from publication PMC5009256.

Sequences of proteins named here, by UniProt entry; tags and fusion partners are left off.
UniProt P10275: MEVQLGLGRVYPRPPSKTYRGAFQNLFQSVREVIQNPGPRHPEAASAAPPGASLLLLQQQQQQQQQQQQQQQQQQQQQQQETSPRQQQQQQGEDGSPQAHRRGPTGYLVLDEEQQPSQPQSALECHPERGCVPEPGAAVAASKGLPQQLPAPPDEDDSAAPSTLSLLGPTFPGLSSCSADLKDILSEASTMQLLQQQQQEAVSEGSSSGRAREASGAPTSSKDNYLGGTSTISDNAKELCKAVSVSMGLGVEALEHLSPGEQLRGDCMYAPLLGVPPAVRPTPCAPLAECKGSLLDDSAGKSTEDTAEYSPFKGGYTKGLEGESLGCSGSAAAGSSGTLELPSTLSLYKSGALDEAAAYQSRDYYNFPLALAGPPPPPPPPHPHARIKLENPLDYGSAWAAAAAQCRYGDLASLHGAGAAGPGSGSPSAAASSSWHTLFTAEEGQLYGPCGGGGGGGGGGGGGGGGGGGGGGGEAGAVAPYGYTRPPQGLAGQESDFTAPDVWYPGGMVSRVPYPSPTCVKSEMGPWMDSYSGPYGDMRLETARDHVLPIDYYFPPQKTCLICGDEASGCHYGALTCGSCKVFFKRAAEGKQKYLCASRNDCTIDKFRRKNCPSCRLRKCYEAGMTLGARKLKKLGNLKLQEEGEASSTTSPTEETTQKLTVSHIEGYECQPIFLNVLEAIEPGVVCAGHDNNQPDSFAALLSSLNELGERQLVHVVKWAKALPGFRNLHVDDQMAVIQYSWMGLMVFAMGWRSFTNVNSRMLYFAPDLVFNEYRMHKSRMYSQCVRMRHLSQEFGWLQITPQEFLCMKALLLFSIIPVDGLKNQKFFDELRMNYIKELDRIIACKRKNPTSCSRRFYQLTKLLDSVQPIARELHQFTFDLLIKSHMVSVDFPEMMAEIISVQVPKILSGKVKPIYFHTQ
UniProt O14818: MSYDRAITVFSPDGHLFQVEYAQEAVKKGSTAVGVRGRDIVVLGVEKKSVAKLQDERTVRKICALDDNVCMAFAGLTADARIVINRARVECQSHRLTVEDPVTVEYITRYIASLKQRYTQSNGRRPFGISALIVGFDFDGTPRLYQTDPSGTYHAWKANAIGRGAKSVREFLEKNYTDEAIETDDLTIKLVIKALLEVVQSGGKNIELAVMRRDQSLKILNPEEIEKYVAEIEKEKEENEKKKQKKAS
UniProt Q14974: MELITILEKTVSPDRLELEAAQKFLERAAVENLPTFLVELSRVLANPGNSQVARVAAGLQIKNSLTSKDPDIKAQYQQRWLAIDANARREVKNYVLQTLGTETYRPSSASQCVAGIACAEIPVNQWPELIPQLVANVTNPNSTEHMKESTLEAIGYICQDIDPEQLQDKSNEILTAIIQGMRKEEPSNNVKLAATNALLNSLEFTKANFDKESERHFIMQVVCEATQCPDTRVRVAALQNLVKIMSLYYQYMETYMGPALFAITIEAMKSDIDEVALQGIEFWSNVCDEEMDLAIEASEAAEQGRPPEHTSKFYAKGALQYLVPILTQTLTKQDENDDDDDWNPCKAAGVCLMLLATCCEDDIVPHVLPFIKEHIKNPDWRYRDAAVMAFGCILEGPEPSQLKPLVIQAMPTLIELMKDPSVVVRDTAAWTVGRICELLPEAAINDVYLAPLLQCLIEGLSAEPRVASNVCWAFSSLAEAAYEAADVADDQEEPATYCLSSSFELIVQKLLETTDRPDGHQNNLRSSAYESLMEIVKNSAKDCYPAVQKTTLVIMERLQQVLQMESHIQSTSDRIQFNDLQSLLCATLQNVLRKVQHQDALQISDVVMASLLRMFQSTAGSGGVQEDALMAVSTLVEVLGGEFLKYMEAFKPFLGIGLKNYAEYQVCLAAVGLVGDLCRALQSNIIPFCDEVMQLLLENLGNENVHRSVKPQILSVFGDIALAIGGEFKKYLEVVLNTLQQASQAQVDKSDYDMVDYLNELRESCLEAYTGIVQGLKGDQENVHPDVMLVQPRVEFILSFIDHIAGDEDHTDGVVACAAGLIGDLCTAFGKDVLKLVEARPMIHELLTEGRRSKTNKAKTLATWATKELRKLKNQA

Biological target: streptavidin-binding peptide-tagged wild-type androgen receptor (SBP-AR), stably expressed in N-AR cells (human) (UniProt P10275)
Assay: affinity purification with mass spectrometry; SBP-AR captured on UltraLink Plus streptavidin beads from 10 mg cytosolic proteins of N-AR cells, androgen-depleted (vehicle, AD) or androgen-stimulated (100 nM R1881, 1 h, AS); overnight at 4 °C in 50 mM Tris, 100 mM KCl, 20% glycerol, 1.5 mM MgCl2, 0.2 mM ZnCl2, 5 mM DTT, 5 mM ATP, 0.025% Nonidet P-40; low-stringency washes; label-free directed MS; one biological replicate; no control purification without SBP-AR

binding	Substance
binds	PSMA7, a subunit of the catalytic 20S core proteasome (from UniProt O14818 1-248)
binds	karyopherin importin α (KPNA6) (from UniProt O60684 1-536)
binds	karyopherin importin β (KPNB1) (from UniProt Q14974 1-876)

Results are given in words; binding and its absence hold for the method and conditions named. In cells and extracts the contact can be indirect. A yes stands for co-enrichment or nearness to the bait. Other partners may have been found.
